# Experimental data as given in the supplement of paper PMC12282887.
# ± gives the standard deviation of the averaged measurements. Values are raw readings; no control value is given beside them.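 Maximum concentrations were near the MIC for antimicrobials, 500 µM for most other compounds, and as high as 1 mM for known inducer-like compounds. Deletion strains began with a tenfold smaller inoculum, and wells with growth under 10% of the overall median counted as non-growing.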
# Test system: Escherichia coli BW25113
# Assay: growth (OD600 area under curve, 8 h) (OD600 x h); higher = more growth
# Protocol: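 E. coli BW25113 reporter strains (wild type, ΔmarA, ΔsoxS, Δrob, each carrying one of 8 lux reporter plasmids) were grown in 40 µl LB in 384-well plates at 37°C, 800 rpm, with each compound at 4 two-fold concentrations, in biological duplicates. Growth is the baseline-corrected OD600 area under the curve over 8 h (0-8 h WT, 1-9 h deletion strains).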
smiles,measurement,setting,value
c1ccc(-c2ccccn2)nc1 [2-2-Bipyridyl],growth,"9.8 µg/ml, genetic background: wild type, reporter plasmid: EVC",2.28 ± 0.27
same,growth,"9.8 µg/ml, genetic background: wild type, reporter plasmid: acrABp",2.6 ± 0.32
same,growth,"9.8 µg/ml, genetic background: wild type, reporter plasmid: marRABp",2.58 ± 0.15
same,growth,"9.8 µg/ml, genetic background: wild type, reporter plasmid: micFp",2.95 ± 0.3
same,growth,"9.8 µg/ml, genetic background: wild type, reporter plasmid: ompFp",2.49 ± 0.1
same,growth,"9.8 µg/ml, genetic background: wild type, reporter plasmid: robp",2.5 ± 0.21
same,growth,"9.8 µg/ml, genetic background: wild type, reporter plasmid: soxSp",2.62 ± 0.18
same,growth,"9.8 µg/ml, genetic background: wild type, reporter plasmid: tolCp",2.8466 ± 0.002
same,growth,"9.8 µg/ml, genetic background: ΔmarA, reporter plasmid: EVC",2.61 ± 0.038
same,growth,"9.8 µg/ml, genetic background: ΔmarA, reporter plasmid: acrABp",3.33 ± 0.58
same,growth,"9.8 µg/ml, genetic background: ΔmarA, reporter plasmid: marRABp",2.6 ± 0.36
same,growth,"9.8 µg/ml, genetic background: ΔmarA, reporter plasmid: micFp",2.52 ± 0.28
same,growth,"9.8 µg/ml, genetic background: ΔmarA, reporter plasmid: ompFp",2.81 ± 0.99
same,growth,"9.8 µg/ml, genetic background: ΔmarA, reporter plasmid: robp",2.7 ± 0.42
same,growth,"9.8 µg/ml, genetic background: ΔmarA, reporter plasmid: soxSp",2.24 ± 0.59
same,growth,"9.8 µg/ml, genetic background: ΔmarA, reporter plasmid: tolCp",2.43 ± 0.092
same,growth,"9.8 µg/ml, genetic background: Δrob, reporter plasmid: EVC",2.41 ± 1
same,growth,"9.8 µg/ml, genetic background: Δrob, reporter plasmid: acrABp",2.61 ± 0.059
same,growth,"9.8 µg/ml, genetic background: Δrob, reporter plasmid: marRABp",2.65 ± 0.039
same,growth,"9.8 µg/ml, genetic background: Δrob, reporter plasmid: micFp",2.63 ± 0.3
same,growth,"9.8 µg/ml, genetic background: Δrob, reporter plasmid: ompFp",2.12 ± 0.69
same,growth,"9.8 µg/ml, genetic background: Δrob, reporter plasmid: robp",2.22 ± 0.058
same,growth,"9.8 µg/ml, genetic background: Δrob, reporter plasmid: soxSp",2.53 ± 0.18
same,growth,"9.8 µg/ml, genetic background: Δrob, reporter plasmid: tolCp",2.5 ± 0.78
same,growth,"9.8 µg/ml, genetic background: ΔsoxS, reporter plasmid: EVC",2.83 ± 0.4
same,growth,"9.8 µg/ml, genetic background: ΔsoxS, reporter plasmid: acrABp",2.58 ± 0.98
same,growth,"9.8 µg/ml, genetic background: ΔsoxS, reporter plasmid: marRABp",2.91 ± 0.39
same,growth,"9.8 µg/ml, genetic background: ΔsoxS, reporter plasmid: micFp",2.27 ± 0.08
same,growth,"9.8 µg/ml, genetic background: ΔsoxS, reporter plasmid: ompFp",2.2 ± 0.45
same,growth,"9.8 µg/ml, genetic background: ΔsoxS, reporter plasmid: robp",2.665 ± 0.0063
same,growth,"9.8 µg/ml, genetic background: ΔsoxS, reporter plasmid: soxSp",2.82 ± 0.47
same,growth,"9.8 µg/ml, genetic background: ΔsoxS, reporter plasmid: tolCp",2.57 ± 0.2
same,growth,"19.5 µg/ml, genetic background: wild type, reporter plasmid: EVC",1.9 ± 0.13
same,growth,"19.5 µg/ml, genetic background: wild type, reporter plasmid: acrABp",2.21 ± 0.34
same,growth,"19.5 µg/ml, genetic background: wild type, reporter plasmid: marRABp",2.56 ± 0.18
same,growth,"19.5 µg/ml, genetic background: wild type, reporter plasmid: micFp",2.47 ± 0.35
same,growth,"19.5 µg/ml, genetic background: wild type, reporter plasmid: ompFp",1.9 ± 0.044
same,growth,"19.5 µg/ml, genetic background: wild type, reporter plasmid: robp",2.07 ± 0.14
same,growth,"19.5 µg/ml, genetic background: wild type, reporter plasmid: soxSp",2.336 ± 0.01
same,growth,"19.5 µg/ml, genetic background: wild type, reporter plasmid: tolCp",2.34 ± 0.13
same,growth,"19.5 µg/ml, genetic background: ΔmarA, reporter plasmid: EVC",2.06 ± 0.048
same,growth,"19.5 µg/ml, genetic background: ΔmarA, reporter plasmid: acrABp",2.82 ± 0.68
same,growth,"19.5 µg/ml, genetic background: ΔmarA, reporter plasmid: marRABp",2.39 ± 0.39
same,growth,"19.5 µg/ml, genetic background: ΔmarA, reporter plasmid: micFp",2.02 ± 0.095
same,growth,"19.5 µg/ml, genetic background: ΔmarA, reporter plasmid: ompFp",2.41 ± 0.78
same,growth,"19.5 µg/ml, genetic background: ΔmarA, reporter plasmid: robp",2.37 ± 0.47
same,growth,"19.5 µg/ml, genetic background: ΔmarA, reporter plasmid: soxSp",1.89 ± 0.47
same,growth,"19.5 µg/ml, genetic background: ΔmarA, reporter plasmid: tolCp",1.96 ± 0.12
same,growth,"19.5 µg/ml, genetic background: Δrob, reporter plasmid: EVC",1.87 ± 0.67
same,growth,"19.5 µg/ml, genetic background: Δrob, reporter plasmid: acrABp",2.12 ± 0.034
same,growth,"19.5 µg/ml, genetic background: Δrob, reporter plasmid: marRABp",2.31 ± 0.09
same,growth,"19.5 µg/ml, genetic background: Δrob, reporter plasmid: micFp",2.15 ± 0.082
same,growth,"19.5 µg/ml, genetic background: Δrob, reporter plasmid: ompFp",1.7 ± 0.66
same,growth,"19.5 µg/ml, genetic background: Δrob, reporter plasmid: robp",1.67 ± 0.038
same,growth,"19.5 µg/ml, genetic background: Δrob, reporter plasmid: soxSp",2.034 ± 0.013
same,growth,"19.5 µg/ml, genetic background: Δrob, reporter plasmid: tolCp",1.93 ± 0.38
same,growth,"19.5 µg/ml, genetic background: ΔsoxS, reporter plasmid: EVC",2.31 ± 0.21
same,growth,"19.5 µg/ml, genetic background: ΔsoxS, reporter plasmid: acrABp",2.25 ± 1
same,growth,"19.5 µg/ml, genetic background: ΔsoxS, reporter plasmid: marRABp",2.57 ± 0.5
same,growth,"19.5 µg/ml, genetic background: ΔsoxS, reporter plasmid: micFp",1.52 ± 0.23
same,growth,"19.5 µg/ml, genetic background: ΔsoxS, reporter plasmid: ompFp",1.66 ± 0.58
same,growth,"19.5 µg/ml, genetic background: ΔsoxS, reporter plasmid: robp",2.25 ± 0.032
same,growth,"19.5 µg/ml, genetic background: ΔsoxS, reporter plasmid: soxSp",2.22 ± 0.33
same,growth,"19.5 µg/ml, genetic background: ΔsoxS, reporter plasmid: tolCp",2.06 ± 0.14
same,growth,"39 µg/ml, genetic background: wild type, reporter plasmid: EVC",0.993 ± 0.3
same,growth,"39 µg/ml, genetic background: wild type, reporter plasmid: acrABp",1.65 ± 0.39
same,growth,"39 µg/ml, genetic background: wild type, reporter plasmid: marRABp",1.51 ± 0.033
same,growth,"39 µg/ml, genetic background: wild type, reporter plasmid: micFp",1.32 ± 0.26
same,growth,"39 µg/ml, genetic background: wild type, reporter plasmid: ompFp",1.15 ± 0.15
same,growth,"39 µg/ml, genetic background: wild type, reporter plasmid: robp",1.38 ± 0.17
same,growth,"39 µg/ml, genetic background: wild type, reporter plasmid: soxSp",1.31 ± 0.025
same,growth,"39 µg/ml, genetic background: wild type, reporter plasmid: tolCp",1.44 ± 0.045
same,growth,"39 µg/ml, genetic background: ΔmarA, reporter plasmid: EVC",1.3 ± 0.14
same,growth,"39 µg/ml, genetic background: ΔmarA, reporter plasmid: acrABp",1.77 ± 0.57
same,growth,"39 µg/ml, genetic background: ΔmarA, reporter plasmid: marRABp",1.6 ± 0.037
same,growth,"39 µg/ml, genetic background: ΔmarA, reporter plasmid: micFp",1.32 ± 0.34
same,growth,"39 µg/ml, genetic background: ΔmarA, reporter plasmid: ompFp",1.52 ± 0.62
same,growth,"39 µg/ml, genetic background: ΔmarA, reporter plasmid: robp",1.97 ± 0.46
same,growth,"39 µg/ml, genetic background: ΔmarA, reporter plasmid: soxSp",1.43 ± 0.32
same,growth,"39 µg/ml, genetic background: ΔmarA, reporter plasmid: tolCp",1.35 ± 0.083
same,growth,"39 µg/ml, genetic background: Δrob, reporter plasmid: EVC",0.892 ± 0.26
same,growth,"39 µg/ml, genetic background: Δrob, reporter plasmid: acrABp",1.35 ± 0.052
same,growth,"39 µg/ml, genetic background: Δrob, reporter plasmid: marRABp",1.5 ± 0.11
same,growth,"39 µg/ml, genetic background: Δrob, reporter plasmid: micFp",0.978 ± 0.16
same,growth,"39 µg/ml, genetic background: Δrob, reporter plasmid: ompFp",0.798 ± 0.48
same,growth,"39 µg/ml, genetic background: Δrob, reporter plasmid: robp",0.931 ± 0.016
same,growth,"39 µg/ml, genetic background: Δrob, reporter plasmid: soxSp",1.05 ± 0.074
same,growth,"39 µg/ml, genetic background: Δrob, reporter plasmid: tolCp",1.05 ± 0.22
same,growth,"39 µg/ml, genetic background: ΔsoxS, reporter plasmid: EVC",1.29 ± 0.066
same,growth,"39 µg/ml, genetic background: ΔsoxS, reporter plasmid: acrABp",1.66 ± 1.2
same,growth,"39 µg/ml, genetic background: ΔsoxS, reporter plasmid: marRABp",1.62 ± 0.35
same,growth,"39 µg/ml, genetic background: ΔsoxS, reporter plasmid: micFp",0.681 ± 0.12
same,growth,"39 µg/ml, genetic background: ΔsoxS, reporter plasmid: ompFp",0.856 ± 0.1
same,growth,"39 µg/ml, genetic background: ΔsoxS, reporter plasmid: robp",1.35 ± 0.35
same,growth,"39 µg/ml, genetic background: ΔsoxS, reporter plasmid: soxSp",1.13 ± 0.21
same,growth,"39 µg/ml, genetic background: ΔsoxS, reporter plasmid: tolCp",1.01 ± 0.12
same,growth,"78.1 µg/ml, genetic background: wild type, reporter plasmid: EVC",0.159 ± 0.07
same,growth,"78.1 µg/ml, genetic background: wild type, reporter plasmid: acrABp",0.559 ± 0.24
same,growth,"78.1 µg/ml, genetic background: wild type, reporter plasmid: marRABp",0.742 ± 0.28
same,growth,"78.1 µg/ml, genetic background: wild type, reporter plasmid: micFp",0.205 ± 0.053
same,growth,"78.1 µg/ml, genetic background: wild type, reporter plasmid: ompFp",0.228 ± 0.1
same,growth,"78.1 µg/ml, genetic background: wild type, reporter plasmid: robp",0.331 ± 0.27
same,growth,"78.1 µg/ml, genetic background: wild type, reporter plasmid: soxSp",0.358 ± 0.13
same,growth,"78.1 µg/ml, genetic background: wild type, reporter plasmid: tolCp",0.511 ± 0.068
same,growth,"78.1 µg/ml, genetic background: ΔmarA, reporter plasmid: EVC",0.301 ± 0.22
same,growth,"78.1 µg/ml, genetic background: ΔmarA, reporter plasmid: acrABp",0.77 ± 0.011
same,growth,"78.1 µg/ml, genetic background: ΔmarA, reporter plasmid: marRABp",0.317 ± 0.15
same,growth,"78.1 µg/ml, genetic background: ΔmarA, reporter plasmid: micFp",0.164 ± 0.13
same,growth,"78.1 µg/ml, genetic background: ΔmarA, reporter plasmid: ompFp",0.403 ± 0.35
same,growth,"78.1 µg/ml, genetic background: ΔmarA, reporter plasmid: robp",0.443 ± 0.13
same,growth,"78.1 µg/ml, genetic background: ΔmarA, reporter plasmid: soxSp",0.219 ± 0.19
same,growth,"78.1 µg/ml, genetic background: ΔmarA, reporter plasmid: tolCp",0.0822 ± 0.13
same,growth,"78.1 µg/ml, genetic background: Δrob, reporter plasmid: EVC",0.216 ± 0.39
same,growth,"78.1 µg/ml, genetic background: Δrob, reporter plasmid: acrABp",0.341 ± 0.15
same,growth,"78.1 µg/ml, genetic background: Δrob, reporter plasmid: marRABp",0.362 ± 0.079
same,growth,"78.1 µg/ml, genetic background: Δrob, reporter plasmid: micFp",0.207 ± 0.11
same,growth,"78.1 µg/ml, genetic background: Δrob, reporter plasmid: ompFp",0.16 ± 0.039
same,growth,"78.1 µg/ml, genetic background: Δrob, reporter plasmid: robp",0.102 ± 0.015
same,growth,"78.1 µg/ml, genetic background: Δrob, reporter plasmid: soxSp",0.185 ± 0.021
same,growth,"78.1 µg/ml, genetic background: Δrob, reporter plasmid: tolCp",0.166 ± 0.015
same,growth,"78.1 µg/ml, genetic background: ΔsoxS, reporter plasmid: EVC",0.149 ± 0.062
same,growth,"78.1 µg/ml, genetic background: ΔsoxS, reporter plasmid: acrABp",0.121 ± 0.04
same,growth,"78.1 µg/ml, genetic background: ΔsoxS, reporter plasmid: marRABp",0.379 ± 0.25
same,growth,"78.1 µg/ml, genetic background: ΔsoxS, reporter plasmid: micFp",0.0837 ± 0.078
same,growth,"78.1 µg/ml, genetic background: ΔsoxS, reporter plasmid: ompFp",0.0976 ± 0.011
same,growth,"78.1 µg/ml, genetic background: ΔsoxS, reporter plasmid: robp",0.138 ± 0.11
same,growth,"78.1 µg/ml, genetic background: ΔsoxS, reporter plasmid: soxSp",0.0912 ± 0.072
same,growth,"78.1 µg/ml, genetic background: ΔsoxS, reporter plasmid: tolCp",0.152 ± 0.0049

# Not a retest: entries from further up.
smiles,measurement,setting,value
c1ccc(-c2ccccn2)nc1 [2-2-Bipyridyl],growth,"78.1 µg/ml, genetic background: Δrob, reporter plasmid: ompFp",0.16 ± 0.039
same,growth,"78.1 µg/ml, genetic background: Δrob, reporter plasmid: robp",0.102 ± 0.015

# Shown bar-delimited: entries from further up
smiles | measurement | setting | value
c1ccc(-c2ccccn2)nc1 [2-2-Bipyridyl] | growth | 9.8 µg/ml, genetic background: ΔmarA, reporter plasmid: ompFp | 2.81 ± 0.99
same | growth | 9.8 µg/ml, genetic background: ΔmarA, reporter plasmid: robp | 2.7 ± 0.42
same | growth | 9.8 µg/ml, genetic background: ΔmarA, reporter plasmid: soxSp | 2.24 ± 0.59
same | growth | 9.8 µg/ml, genetic background: ΔmarA, reporter plasmid: tolCp | 2.43 ± 0.092
same | growth | 9.8 µg/ml, genetic background: Δrob, reporter plasmid: EVC | 2.41 ± 1
same | growth | 9.8 µg/ml, genetic background: Δrob, reporter plasmid: acrABp | 2.61 ± 0.059
